Earlier results as cited in US11749383B2, “Methods and systems of predicting agent induced effects in silico” (The Regents of the University of California, priority 2016, dated 2023).
At least one structure is not confirmed: it was looked up by name or label, or the drawing left a doubt.

Conditions: cited from earlier work

FC(F)(F)Oc1ccc(-c2ccc3nnc(C(F)(F)F)n3c2)cc1 [GS-458967]
protonation at physiological pH: highly non-basic and cannot be protonated at physiological pH
